In paper PMC2829546:
These are yes or no findings as the source states them, for the method shown. Binding seen in cells or lysates may run through a third protein. Binding calls can cover weak binding; strength is not graded here.

Protein sequences, listed by entry. Tags and fused reporters are not part of them. Lines headed by an entry give the natural chain unless they say otherwise; changes in a name come on top.
UniProt P23385: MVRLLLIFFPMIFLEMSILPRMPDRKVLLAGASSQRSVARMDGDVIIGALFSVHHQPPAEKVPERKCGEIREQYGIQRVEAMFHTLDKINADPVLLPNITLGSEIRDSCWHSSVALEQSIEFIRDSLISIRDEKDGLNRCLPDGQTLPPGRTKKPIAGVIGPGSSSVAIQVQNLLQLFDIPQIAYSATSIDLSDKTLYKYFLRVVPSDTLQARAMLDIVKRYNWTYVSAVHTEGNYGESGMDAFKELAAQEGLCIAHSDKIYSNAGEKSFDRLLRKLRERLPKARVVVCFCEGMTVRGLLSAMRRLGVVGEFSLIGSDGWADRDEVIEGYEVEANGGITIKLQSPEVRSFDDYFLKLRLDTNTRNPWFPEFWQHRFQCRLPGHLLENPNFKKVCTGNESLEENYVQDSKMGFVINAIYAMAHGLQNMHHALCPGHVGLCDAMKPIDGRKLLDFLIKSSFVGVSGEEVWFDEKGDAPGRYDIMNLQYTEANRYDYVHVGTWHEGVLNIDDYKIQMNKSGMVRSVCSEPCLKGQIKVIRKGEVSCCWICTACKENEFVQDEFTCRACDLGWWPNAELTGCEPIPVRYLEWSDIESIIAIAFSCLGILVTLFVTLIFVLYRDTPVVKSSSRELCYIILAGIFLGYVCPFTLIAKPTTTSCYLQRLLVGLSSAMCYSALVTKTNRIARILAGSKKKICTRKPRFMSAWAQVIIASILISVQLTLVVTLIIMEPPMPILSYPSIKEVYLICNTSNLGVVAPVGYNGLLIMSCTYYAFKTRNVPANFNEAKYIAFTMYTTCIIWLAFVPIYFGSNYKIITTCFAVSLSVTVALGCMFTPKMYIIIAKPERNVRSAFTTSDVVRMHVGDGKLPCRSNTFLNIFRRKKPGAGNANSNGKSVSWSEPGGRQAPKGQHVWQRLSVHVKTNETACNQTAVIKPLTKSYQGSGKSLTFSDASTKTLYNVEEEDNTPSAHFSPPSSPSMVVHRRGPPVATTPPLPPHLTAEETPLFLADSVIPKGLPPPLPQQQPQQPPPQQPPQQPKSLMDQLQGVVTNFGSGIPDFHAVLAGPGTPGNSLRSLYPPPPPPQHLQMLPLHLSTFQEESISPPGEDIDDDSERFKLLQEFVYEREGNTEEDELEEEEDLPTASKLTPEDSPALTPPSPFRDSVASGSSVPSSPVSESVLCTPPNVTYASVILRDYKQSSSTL
UniProt Q14289: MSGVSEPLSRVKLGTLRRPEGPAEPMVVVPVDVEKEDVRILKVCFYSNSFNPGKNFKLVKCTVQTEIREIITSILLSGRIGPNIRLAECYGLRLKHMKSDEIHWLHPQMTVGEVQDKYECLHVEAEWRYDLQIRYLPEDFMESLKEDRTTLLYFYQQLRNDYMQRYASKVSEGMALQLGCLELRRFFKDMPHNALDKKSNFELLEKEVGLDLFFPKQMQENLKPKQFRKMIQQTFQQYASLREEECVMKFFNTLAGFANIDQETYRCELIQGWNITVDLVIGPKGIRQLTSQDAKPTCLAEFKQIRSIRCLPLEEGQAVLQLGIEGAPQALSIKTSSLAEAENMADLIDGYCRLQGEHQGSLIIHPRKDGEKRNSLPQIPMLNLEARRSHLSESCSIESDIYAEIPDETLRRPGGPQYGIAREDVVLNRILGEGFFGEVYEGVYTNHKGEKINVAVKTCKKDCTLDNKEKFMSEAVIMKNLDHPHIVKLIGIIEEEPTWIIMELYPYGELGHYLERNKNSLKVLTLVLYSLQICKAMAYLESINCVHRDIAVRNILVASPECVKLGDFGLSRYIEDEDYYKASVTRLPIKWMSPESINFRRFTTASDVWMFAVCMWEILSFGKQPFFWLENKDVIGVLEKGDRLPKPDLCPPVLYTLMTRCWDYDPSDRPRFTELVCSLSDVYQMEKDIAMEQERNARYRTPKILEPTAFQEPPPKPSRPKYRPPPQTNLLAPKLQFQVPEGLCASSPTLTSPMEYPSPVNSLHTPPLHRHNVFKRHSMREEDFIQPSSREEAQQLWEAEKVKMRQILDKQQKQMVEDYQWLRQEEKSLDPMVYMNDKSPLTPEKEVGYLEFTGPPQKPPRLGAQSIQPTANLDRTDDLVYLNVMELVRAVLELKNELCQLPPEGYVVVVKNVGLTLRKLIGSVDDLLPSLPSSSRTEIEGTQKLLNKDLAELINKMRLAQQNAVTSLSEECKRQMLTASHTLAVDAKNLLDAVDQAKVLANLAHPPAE

Molecular target: FLAG-mGluR1a-866Δ (UniProt P23385)
Assay: co-IP; HEK293 cells transiently transfected; 500-1000 ug lysate protein; lysis buffer 25 mM HEPES pH 7.5, 300 mM NaCl, 1.5 mM MgCl2, 0.2 mM EDTA, 0.1% Triton X-100; FLAG-tagged mGluR1 immunoprecipitated with FLAG Sepharose beads overnight at 4 C; cells untreated or treated with 30 uM quisqualate (0-30 min); GDP-AlF4- treatment in Fig. 4C

## HA-Pyk2 (proline-rich tyrosine kinase 2), expressed in HEK293 cells (from UniProt Q14289 1-1009) (enzyme)
  binding: binds
